# Results reported in the supplement of paper PMC12067093, “Discovery and optimisation of a covalent ligand for TRIM25 and its application to targeted protein ubiquitination” (Chemical Science, 2025).
# The chains behind the UniProt entries cited, without tags or fusion partners. Where a name states a change or a piece, a line headed by the entry shows the natural chain unless it says otherwise.
# UniProt Q8IWY9: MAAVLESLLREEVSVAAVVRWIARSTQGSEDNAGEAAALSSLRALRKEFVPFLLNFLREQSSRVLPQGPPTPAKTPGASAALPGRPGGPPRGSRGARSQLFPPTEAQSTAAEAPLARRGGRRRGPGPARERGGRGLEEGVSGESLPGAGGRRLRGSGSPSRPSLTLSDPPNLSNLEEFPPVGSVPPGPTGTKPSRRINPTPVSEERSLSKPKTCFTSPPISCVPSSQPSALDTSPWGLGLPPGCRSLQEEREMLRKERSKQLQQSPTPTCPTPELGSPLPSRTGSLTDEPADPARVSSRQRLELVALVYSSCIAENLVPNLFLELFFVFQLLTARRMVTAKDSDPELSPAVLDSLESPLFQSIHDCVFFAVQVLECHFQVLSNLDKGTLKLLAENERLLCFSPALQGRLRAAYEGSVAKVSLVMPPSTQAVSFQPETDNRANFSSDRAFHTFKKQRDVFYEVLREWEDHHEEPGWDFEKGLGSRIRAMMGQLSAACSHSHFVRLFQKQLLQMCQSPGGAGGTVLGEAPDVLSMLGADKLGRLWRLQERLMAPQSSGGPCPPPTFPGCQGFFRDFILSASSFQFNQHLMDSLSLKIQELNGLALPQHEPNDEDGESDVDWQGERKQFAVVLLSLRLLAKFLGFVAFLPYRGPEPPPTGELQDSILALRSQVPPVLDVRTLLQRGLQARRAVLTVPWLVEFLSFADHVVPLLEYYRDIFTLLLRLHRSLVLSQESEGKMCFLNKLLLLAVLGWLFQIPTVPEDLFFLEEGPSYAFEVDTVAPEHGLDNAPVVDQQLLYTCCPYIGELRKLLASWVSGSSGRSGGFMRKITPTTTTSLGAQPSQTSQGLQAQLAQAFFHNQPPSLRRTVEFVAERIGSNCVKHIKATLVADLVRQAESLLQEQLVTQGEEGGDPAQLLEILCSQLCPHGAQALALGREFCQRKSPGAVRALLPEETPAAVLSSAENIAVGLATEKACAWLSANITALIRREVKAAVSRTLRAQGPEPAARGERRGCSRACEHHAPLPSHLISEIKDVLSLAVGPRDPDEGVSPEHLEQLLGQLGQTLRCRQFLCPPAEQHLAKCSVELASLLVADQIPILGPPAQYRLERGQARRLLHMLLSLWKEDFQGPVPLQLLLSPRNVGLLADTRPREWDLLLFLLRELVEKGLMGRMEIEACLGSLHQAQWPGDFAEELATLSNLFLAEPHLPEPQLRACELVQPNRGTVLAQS
# UniProt Q6ZU80: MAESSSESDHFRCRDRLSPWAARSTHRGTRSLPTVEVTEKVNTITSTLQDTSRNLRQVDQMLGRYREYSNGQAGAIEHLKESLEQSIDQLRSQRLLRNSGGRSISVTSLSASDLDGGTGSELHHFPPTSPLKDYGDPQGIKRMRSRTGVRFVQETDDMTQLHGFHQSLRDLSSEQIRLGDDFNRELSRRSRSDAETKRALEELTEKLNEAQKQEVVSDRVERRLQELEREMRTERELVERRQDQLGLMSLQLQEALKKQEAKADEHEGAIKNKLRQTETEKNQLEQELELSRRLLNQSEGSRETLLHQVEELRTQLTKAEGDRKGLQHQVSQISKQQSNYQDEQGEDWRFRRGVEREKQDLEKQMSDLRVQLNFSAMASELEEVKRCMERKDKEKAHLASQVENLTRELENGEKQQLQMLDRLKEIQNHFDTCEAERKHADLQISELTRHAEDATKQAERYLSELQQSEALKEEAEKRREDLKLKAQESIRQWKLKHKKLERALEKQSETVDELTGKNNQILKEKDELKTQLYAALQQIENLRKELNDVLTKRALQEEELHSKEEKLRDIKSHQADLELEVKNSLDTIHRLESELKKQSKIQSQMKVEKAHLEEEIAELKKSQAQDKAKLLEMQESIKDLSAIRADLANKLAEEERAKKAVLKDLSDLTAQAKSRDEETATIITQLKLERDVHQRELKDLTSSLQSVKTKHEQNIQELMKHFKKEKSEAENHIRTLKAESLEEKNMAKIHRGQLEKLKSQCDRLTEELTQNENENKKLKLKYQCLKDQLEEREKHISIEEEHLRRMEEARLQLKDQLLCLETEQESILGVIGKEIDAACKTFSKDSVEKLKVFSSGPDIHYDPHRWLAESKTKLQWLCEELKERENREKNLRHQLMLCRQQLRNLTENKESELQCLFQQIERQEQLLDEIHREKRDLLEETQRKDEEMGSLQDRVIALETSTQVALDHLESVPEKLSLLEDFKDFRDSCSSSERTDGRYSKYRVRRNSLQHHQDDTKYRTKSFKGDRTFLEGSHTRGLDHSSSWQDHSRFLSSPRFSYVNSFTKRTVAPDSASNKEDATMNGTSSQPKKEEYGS
# UniProt P48960: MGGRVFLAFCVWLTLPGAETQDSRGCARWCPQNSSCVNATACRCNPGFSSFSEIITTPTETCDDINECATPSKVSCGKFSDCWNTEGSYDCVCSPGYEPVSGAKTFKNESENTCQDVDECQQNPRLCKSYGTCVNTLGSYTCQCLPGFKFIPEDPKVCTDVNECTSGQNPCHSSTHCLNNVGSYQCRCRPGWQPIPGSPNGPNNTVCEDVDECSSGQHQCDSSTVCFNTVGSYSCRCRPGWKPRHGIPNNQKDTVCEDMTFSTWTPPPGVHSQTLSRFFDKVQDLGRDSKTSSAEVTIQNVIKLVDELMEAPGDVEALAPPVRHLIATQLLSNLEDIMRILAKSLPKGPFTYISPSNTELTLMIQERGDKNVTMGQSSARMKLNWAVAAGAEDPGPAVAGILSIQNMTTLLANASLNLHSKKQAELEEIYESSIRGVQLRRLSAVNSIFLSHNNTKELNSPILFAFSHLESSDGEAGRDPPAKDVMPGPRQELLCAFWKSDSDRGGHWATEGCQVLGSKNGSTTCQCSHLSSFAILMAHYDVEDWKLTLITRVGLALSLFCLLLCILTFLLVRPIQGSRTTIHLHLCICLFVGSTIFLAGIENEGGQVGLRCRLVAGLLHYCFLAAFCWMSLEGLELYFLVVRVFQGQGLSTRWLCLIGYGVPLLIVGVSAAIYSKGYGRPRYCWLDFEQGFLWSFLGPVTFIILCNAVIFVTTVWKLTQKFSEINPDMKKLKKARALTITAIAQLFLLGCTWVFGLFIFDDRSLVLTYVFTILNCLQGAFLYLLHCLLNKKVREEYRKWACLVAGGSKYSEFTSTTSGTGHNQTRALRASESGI
# UniProt Q5VT06: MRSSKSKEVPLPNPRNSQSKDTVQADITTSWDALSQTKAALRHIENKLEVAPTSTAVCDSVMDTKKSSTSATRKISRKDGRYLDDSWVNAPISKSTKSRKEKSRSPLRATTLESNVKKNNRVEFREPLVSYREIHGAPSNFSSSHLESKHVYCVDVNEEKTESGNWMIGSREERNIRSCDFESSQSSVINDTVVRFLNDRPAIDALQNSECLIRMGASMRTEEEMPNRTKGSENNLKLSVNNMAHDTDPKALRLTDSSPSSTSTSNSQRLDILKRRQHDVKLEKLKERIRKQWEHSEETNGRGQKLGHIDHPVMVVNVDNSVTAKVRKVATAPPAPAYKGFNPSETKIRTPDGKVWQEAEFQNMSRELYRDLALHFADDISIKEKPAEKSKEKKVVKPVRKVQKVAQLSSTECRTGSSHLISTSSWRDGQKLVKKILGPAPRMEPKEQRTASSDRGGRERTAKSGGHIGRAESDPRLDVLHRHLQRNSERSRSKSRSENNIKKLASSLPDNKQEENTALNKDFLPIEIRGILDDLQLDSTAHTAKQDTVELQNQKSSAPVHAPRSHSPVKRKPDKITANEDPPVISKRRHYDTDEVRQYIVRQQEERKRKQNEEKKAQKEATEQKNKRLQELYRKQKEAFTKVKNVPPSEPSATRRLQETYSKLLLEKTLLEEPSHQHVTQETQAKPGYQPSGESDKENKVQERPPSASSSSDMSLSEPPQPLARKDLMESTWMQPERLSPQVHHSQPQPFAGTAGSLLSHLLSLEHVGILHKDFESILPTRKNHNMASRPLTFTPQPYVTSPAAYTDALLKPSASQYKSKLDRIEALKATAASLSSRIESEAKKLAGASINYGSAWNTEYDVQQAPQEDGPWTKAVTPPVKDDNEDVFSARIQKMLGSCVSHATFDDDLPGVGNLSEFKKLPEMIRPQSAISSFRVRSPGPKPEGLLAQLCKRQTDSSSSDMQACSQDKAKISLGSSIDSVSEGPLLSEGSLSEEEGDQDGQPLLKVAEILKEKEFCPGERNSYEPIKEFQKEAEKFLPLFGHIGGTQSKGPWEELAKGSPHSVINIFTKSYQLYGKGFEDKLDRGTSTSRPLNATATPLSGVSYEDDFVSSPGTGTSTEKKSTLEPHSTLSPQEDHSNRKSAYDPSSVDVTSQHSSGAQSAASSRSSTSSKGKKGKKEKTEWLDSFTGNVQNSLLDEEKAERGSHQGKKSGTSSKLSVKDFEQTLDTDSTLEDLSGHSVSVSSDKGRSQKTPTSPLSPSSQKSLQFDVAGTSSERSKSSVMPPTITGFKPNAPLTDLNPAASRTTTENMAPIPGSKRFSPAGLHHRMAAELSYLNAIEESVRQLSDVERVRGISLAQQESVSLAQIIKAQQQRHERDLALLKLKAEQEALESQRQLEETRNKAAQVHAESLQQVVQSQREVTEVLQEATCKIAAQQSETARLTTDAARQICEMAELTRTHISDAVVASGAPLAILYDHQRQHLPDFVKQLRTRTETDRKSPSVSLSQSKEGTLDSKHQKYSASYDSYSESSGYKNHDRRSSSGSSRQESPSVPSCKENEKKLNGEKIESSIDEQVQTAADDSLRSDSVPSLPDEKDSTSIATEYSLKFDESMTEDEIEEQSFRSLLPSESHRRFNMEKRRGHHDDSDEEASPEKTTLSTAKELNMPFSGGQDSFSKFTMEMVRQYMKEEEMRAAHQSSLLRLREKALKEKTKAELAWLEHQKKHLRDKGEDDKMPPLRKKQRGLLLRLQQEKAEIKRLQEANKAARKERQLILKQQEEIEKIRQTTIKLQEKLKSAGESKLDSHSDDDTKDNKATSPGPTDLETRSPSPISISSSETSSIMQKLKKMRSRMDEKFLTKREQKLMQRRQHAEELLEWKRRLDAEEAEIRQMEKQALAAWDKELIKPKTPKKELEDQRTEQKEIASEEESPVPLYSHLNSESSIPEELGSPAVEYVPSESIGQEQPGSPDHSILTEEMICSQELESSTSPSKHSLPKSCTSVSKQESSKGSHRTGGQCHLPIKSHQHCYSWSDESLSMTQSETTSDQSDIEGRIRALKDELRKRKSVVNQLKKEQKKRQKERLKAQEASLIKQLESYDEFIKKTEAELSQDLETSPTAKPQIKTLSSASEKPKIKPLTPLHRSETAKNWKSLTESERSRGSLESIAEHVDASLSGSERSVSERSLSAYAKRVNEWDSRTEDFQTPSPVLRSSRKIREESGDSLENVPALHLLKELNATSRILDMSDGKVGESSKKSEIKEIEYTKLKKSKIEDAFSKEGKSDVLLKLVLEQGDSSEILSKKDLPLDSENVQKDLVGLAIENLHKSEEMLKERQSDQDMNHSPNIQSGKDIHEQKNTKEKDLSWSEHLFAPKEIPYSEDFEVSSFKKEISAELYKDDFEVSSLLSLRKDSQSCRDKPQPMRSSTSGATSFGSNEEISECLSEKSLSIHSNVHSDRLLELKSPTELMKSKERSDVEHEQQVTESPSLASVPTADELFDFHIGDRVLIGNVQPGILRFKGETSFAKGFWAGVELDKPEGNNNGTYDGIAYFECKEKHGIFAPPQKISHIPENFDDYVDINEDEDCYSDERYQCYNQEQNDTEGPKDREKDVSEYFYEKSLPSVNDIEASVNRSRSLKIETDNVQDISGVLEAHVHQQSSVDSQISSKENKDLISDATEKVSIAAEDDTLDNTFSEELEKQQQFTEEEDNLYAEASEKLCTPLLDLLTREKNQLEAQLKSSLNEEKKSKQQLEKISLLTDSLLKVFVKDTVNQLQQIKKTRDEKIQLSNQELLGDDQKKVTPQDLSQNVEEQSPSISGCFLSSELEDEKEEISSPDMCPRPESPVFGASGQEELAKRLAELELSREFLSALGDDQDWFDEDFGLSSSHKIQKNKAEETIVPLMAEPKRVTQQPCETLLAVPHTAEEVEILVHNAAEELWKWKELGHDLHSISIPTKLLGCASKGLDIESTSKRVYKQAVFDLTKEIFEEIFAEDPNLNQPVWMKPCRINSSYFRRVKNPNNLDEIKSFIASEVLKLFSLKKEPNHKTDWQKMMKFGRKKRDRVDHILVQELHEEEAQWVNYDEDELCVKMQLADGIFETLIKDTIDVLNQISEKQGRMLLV
# UniProt P25942, whole entry, looked up: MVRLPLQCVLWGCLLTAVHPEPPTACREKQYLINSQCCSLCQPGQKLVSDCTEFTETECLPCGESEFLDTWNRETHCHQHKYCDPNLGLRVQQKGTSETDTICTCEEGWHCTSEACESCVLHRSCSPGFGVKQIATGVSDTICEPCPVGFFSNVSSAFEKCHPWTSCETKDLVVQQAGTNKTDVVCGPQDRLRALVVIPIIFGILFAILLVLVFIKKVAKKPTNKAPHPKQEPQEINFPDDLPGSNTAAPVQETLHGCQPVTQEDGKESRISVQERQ
# The other results are listed elsewhere or left out.
# Compound: CC1Cc2ccccc2N1C(=O)C1CCCN(C1)C(=O)CCl (mixture of isomers) [TRIM25 ligand 11 (diastereomer mixture)]
# Assay: probe-labelled cysteine peptide fold change vs DMSO (competition) (log2 fold change); higher = less target engagement (more negative = stronger competition)
# Settings: 10 µM; THP-1; incubation time: 4 h
# 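Also: competitive chemoproteomic profiling in live THP-1 cells with an iodoacetamide desthiobiotin (IA-DTB) probe, comparing probe-labelled peptide intensities in compound-treated cells against DMSO-treated controls.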
row,Target,probe-labelled cysteine peptide fold change
1,CEP192_Q8TEP8_882_TCSIDNK (UniProt Q8TEP8),-0.0825
2,CENPF_P49454_1291_YISGPHELSTSQNDNAHLQCSLQTTMNK (UniProt P49454),-0.0647
3,CD44_P16070_53_TEAADLCK (UniProt P16070),0.049
4,CDC27_P30260_126_SHDDIVTEFGDSACFTLSLLGHVYCK (UniProt P30260),0.022
5,CEP170_Q5SW79_30_EMIFVGRDDCELMLQSR (UniProt Q5SW79),-0.0857
6,CDKN2AIP_Q9NXV6_503_SSQESIVCELR (UniProt Q9NXV6),0.103
7,CEP120_Q8N960_762_AKEDCIHQVELER (UniProt Q8N960),-0.0766
8,CDAN1_Q8IWY9_400_LLCFSPALQGR (UniProt Q8IWY9),0.0602
9,CEP128_Q6ZU80_839_EIDAACK (UniProt Q6ZU80),0.0414
10,CD97_P48960_256_DTVCEDMTFSTWTPPPGVHSQTLSR (UniProt P48960),0.0551
11,CENPV_Q7Z7K6_240_SNPGGFGIAPHCLDEGTVR (UniProt Q7Z7K6),-0.0934
12,CEP350_Q5VT06_1557_QESPSVPSCK (UniProt Q5VT06),-0.19
13,CEP350_Q5VT06_1432_EVTEVLQEATCK (UniProt Q5VT06),-0.0584
14,CEP192_Q8TEP8_2335_CSPISGLLESHGIQK (UniProt Q8TEP8),-0.00846
15,CEP250_Q9BV73_1740_EVECQQEHIHELQELK (UniProt Q9BV73),-0.267
16,CD40_P25942_111_GTSETDTICTCEEGWHCTSEACESCVLHR (UniProt P25942),-0.0143

# Rewritten tab-delimited: entries from further up.
row	Target	probe-labelled cysteine peptide fold change
8	CDAN1_Q8IWY9_400_LLCFSPALQGR (UniProt Q8IWY9)	0.0602
9	CEP128_Q6ZU80_839_EIDAACK (UniProt Q6ZU80)	0.0414
